# About 6,100 (1.1%) of roughly 580,000 compounds were called active. The inconclusive results got no clear call from the source; some entries with a clear call stand among them for comparison. The call rests on the fitted dose curve; in most records, active means well fitted inhibition curve with a large enough effect; inconclusive means small, poorly fitted or top-dose-only effect, or another doubt; inactive means no such curve, though single readings can be large or run the other way. A potency beside an inconclusive call is a rough fit, not a confirmed value.
# By UniProt entry, the sequences of proteins in these tests, tags left out.
# UniProt P18054, whole entry, looked up: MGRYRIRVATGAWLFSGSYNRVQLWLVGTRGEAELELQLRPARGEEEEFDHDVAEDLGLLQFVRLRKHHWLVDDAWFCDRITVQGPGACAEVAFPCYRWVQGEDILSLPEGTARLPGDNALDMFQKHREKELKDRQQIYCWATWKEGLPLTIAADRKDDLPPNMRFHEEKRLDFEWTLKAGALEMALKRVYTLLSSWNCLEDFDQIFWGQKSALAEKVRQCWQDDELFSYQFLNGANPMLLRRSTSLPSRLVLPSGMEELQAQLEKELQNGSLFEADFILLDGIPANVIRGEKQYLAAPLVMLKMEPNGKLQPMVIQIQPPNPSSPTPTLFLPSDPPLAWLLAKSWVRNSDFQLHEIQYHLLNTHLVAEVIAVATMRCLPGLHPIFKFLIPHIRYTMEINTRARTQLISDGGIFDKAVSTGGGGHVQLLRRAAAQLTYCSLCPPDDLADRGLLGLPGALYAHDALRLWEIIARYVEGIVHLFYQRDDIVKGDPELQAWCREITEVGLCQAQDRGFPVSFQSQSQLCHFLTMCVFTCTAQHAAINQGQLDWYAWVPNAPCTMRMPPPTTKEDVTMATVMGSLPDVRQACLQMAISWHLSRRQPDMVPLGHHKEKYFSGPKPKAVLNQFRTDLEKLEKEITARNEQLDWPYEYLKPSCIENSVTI
# Target: Polyunsaturated fatty acid lipoxygenase ALOX12 (Homo sapiens) (UniProt P18054)
# Assay: Primary qHTS assay for inhibitors of human arachidonate 12S-lipoxygenase (ALOX12): Round 2
# Settings: purified 12hLO, xylenol orange hydroperoxide absorbance; activity change, negative = inhibition: at 108 µM (top of the series) unless noted
# Outline: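 Purified human 12hLO at 150 nM in 25 mM Hepes, 0.01% Triton X-100, pH 7.0, preincubated 15 min at room temperature with compound. Reaction started with 40 uM arachidonic acid, 30 min at room temperature. Hydroperoxide measured by Fe-xylenol orange, 573/405 nm absorbance ratio.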
# On the % scale 0 is the no-effect control and ±100 the full control effect; potency means the concentration at half of the fitted maximal effect.
SMILES,Potency,"activity change, negative = inhibition"
O=C(CN1C(=O)C(=O)N(CCC2=CCCCC2)C1=O)c1c[nH]c2ccccc12,"inconclusive: 100 µM [inhibitor, single point]",
CC(C)=CCC/C(C)=C/CN1C(=O)N(c2ccc(F)cc2)[C@H]2C[C@@H](c3ccccc3)[C@@H](C)[C@@H](C(=O)N3CCOCC3)C[C@H]21,"inconclusive: 44.7 µM [inhibitor, partial curve, poor fit]",
COc1cc(C)c(CC/C(C)=C/C=C/C(C)=O)c(C)c1C,,inactive: 7.75%
O=c1cc(CN2CCN(S(=O)(=O)c3ccccc3)CC2)c2cc(Cl)c(O)cc2o1,"inconclusive: 50.1 µM [inhibitor, partial curve, poor fit]",
Cc1ccc(CSc2ccc(-c3ccco3)nn2)cc1,"inconclusive: 100 µM [inhibitor, partial curve, poor fit]",
CCn1c2c(c(=O)n3ncc(C(=O)Nc4cccc(Cl)c4C)c13)CN(Cc1ccc(OC)cc1)CC2,"inconclusive: 89.1 µM [inhibitor, partial curve, poor fit]",
C/C(=N\Nc1ccc([N+](=O)[O-])cc1)c1cccc(N)c1,"inconclusive: 44.7 µM [inhibitor, partial curve, poor fit]",
COc1cccc(CNC(=O)C2CCN(C(=O)c3ncn4c3COC(c3ccccc3)C4)CC2)c1 (centres undefined),,inactive: 32.9%
Cc1c(CC(=O)N2CCOCC2)c2c(n1Cc1ccc(F)cc1)CCCC2=O,,inactive: -17.1%
CCOc1ccc(Nc2ccc(N)c(S(=O)(=O)O)c2)cc1,"inconclusive: 44.7 µM [inhibitor, partial curve, poor fit]",
N#C/C(C(=S)Nc1ccccc1)=C1/NN=C(N2CCOCC2)N1c1ccccc1,"inconclusive: 50.1 µM [inhibitor, partial curve, poor fit]",
CC(=O)c1c(C)[nH]c(C(=O)OC(C)C(=O)c2ccc(Cl)cc2)c1C (centres undefined),"inconclusive: 35.5 µM [inhibitor, partial curve, poor fit]",
COc1cc(C2C3=C(CCCC3=O)Nc3nc(SCc4ccccc4)[nH]c(=O)c32)cc(OC)c1O (centres undefined),"inconclusive: 15.8 µM [inhibitor, partial curve, poor fit]",
Cc1nc(CSc2ccc(C(=O)NC3CCCC(C(F)(F)F)C3)cc2)cs1 (centres undefined),,inactive: -26.9%
Cc1ccc(-c2csc(-c3c[nH]c4ccccc34)n2)c(C)c1,,inactive: -26.4%
O=C(O)Cn1ccnc1,"inconclusive: 79.4 µM [inhibitor, partial curve, poor fit]",
O=C(CSc1nnc2n1CCCCC2)Nc1ccc(N2CCOCC2)cc1,"inconclusive: 1.58 µM [inhibitor, full curve, poor fit]",
CC1CC(C)(C)NC(=S)N1CC(=O)N(C)Cc1ccccc1 (centres undefined),"inconclusive: 63.1 µM [inhibitor, partial curve, poor fit]",
Cc1n[nH]c(=O)nc1NCC1CCCO1 (centres undefined),,inactive: -0.53%
COc1cc(CNCCCN2CCOCC2)cc(Br)c1OCC(=O)N1CCCCC1,"inconclusive: 17.8 µM [inhibitor, full curve]",
CCOC(=O)c1ccc(NC(=O)C2CC2)cc1,,inactive: -20.7%
C[C@@H]1O[C@@H](n2c3ccc(Cl)cc3c3ccc4c5cc(Cl)ccc5[nH]c4c32)[C@H](O)[C@H](O)[C@H]1O,"inconclusive: 31.6 µM [inhibitor, partial curve]",
C=CCn1c(=S)[nH]c2scc(-c3ccc(C)o3)c2c1=O,,inactive: -21.2%

# Three successive compounds from above:
SMILES,Potency,"activity change, negative = inhibition"
O=C(CN1C(=O)C(=O)N(CCC2=CCCCC2)C1=O)c1c[nH]c2ccccc12,"inconclusive: 100 µM [inhibitor, single point]",
CC(C)=CCC/C(C)=C/CN1C(=O)N(c2ccc(F)cc2)[C@H]2C[C@@H](c3ccccc3)[C@@H](C)[C@@H](C(=O)N3CCOCC3)C[C@H]21,"inconclusive: 44.7 µM [inhibitor, partial curve, poor fit]",
COc1cc(C)c(CC/C(C)=C/C=C/C(C)=O)c(C)c1C,,inactive: 7.75%

# (next part)

SMILES,Potency,"activity change, negative = inhibition"
CCOC(=O)c1cc2nc(-c3ccccc3)cc(C)n2n1,,inactive: 0%
CC1(C)CC(=O)C(C=Nc2ccccc2)C(=O)C1,"inconclusive: 3.98 µM [inhibitor, full curve, poor fit]",
N#C/C(=C/c1cc[nH]c1)C(N)=S,"inconclusive: 79.4 µM [inhibitor, partial curve, poor fit]",
CCn1c(SCC(=O)c2ccc([N+](=O)[O-])cc2)nnc1-c1ccc(Cl)cc1,,inactive: 0%
CCCCCCNC(=S)Nc1ccc(Br)cc1,"inconclusive: 12.6 µM [inhibitor, partial curve, poor fit]",
CN(C)C(=O)C[C@H]1C[C@@H]2c3cc(NC(=O)NC4CCCC4)ccc3O[C@@H]2[C@@H](CO)O1,"inconclusive: 79.4 µM [inhibitor, single point]",
O=C1CSC(c2ccccc2)N1Cc1ccccc1 (centres undefined),,inactive: -1.8%
CN(C)C[C@@H]1CN(c2ncccn2)C[C@H]1NC(=O)Cc1cccc(F)c1,,inactive: 14.8%
CC(C)NC(=O)N(C1CC1)C1CCOC2(CCN(C(=O)C3(c4ccccc4)CC3)CC2)C1 (centres undefined),,inactive: 17.5%
CCCCn1c(SCC(=O)Nc2ccc3c(c2)CCC3)nc2ccccc2c1=O,,inactive: -5.39%
O=[N+]([O-])c1cccc(NNS(=O)(=O)c2ccccc2F)c1,"inconclusive: 2.82 µM [inhibitor, full curve, poor fit]",
Cc1ccc(S(=O)(=O)NC[C@H]2O[C@H](Cc3cc(-c4cccc(O)c4)on3)CC[C@@H]2O)cc1,"inconclusive: 17.8 µM [inhibitor, full curve, poor fit]",
C[C@@H]1C=CC(=O)O[C@@H]1c1ccc(Cl)cc1,,inactive: 2.48%
COc1ccccc1-c1nc(SCC(=O)NCc2ccco2)c2c(=O)n(C)c(=O)n(C)c2n1,"inconclusive: 39.8 µM [inhibitor, partial curve, poor fit]",
CCN(C)C(=O)Cn1c(Cc2ccccc2)nn(-c2ccccc2OC)c1=O,,inactive: -27.2%
OCc1cnc2ccccc2c1,,inactive: 20.5%
COC(=O)c1ccc2nc(Nc3nc4ccc(F)cc4s3)sc2c1,,inactive: -0.169%
O=C(NC1CC1)c1ccc(NS(=O)(=O)c2ccccc2C(F)(F)F)cc1,"inconclusive: 39.8 µM [inhibitor, partial curve, poor fit]",
CCOc1ccccc1C1NC(=O)N(CC(=O)NC2CCCCC2)C2=C1C(=O)OC2 (centres undefined),,inactive: 17.4%
Cc1cc(C)c(C#N)c(SCC(=O)c2ccccc2)n1,,inactive: -8.95%
Cc1ccc(C(N)=O)c(OCc2coc(-c3ccccc3)n2)c1,,inactive: -0.951%
O=C(CSc1ncn[nH]1)c1ccc2c(c1)OCO2,"inconclusive: 11.2 µM [inhibitor, full curve, poor fit]",
COc1ccc(C2c3[nH]c4ccccc4c3CCN2Cc2cccn2-c2ncccn2)cc1C (centres undefined),,inactive: -8.17%

SMILES,Potency,"activity change, negative = inhibition"
CC(C)c1ccc(NC(=O)C(c2ccccc2)N2CC(=O)Nc3ccccc32)cc1 (centres undefined),"inconclusive: 39.8 µM [inhibitor, partial curve, poor fit]",
CC(C)Cn1nc(NC(=O)c2ccco2)c2cc3ccccc3nc21,"inconclusive: 100 µM [inhibitor, partial curve, poor fit]",
NC(=O)[C@H](CC1CCCCC1)NC(=O)[C@H]1CN(C(=O)C2CCNCC2)CCN1C(=O)c1cccs1,"inconclusive: 44.7 µM [inhibitor, partial curve, poor fit]",
CCc1ccc(NC(=O)CSc2nc(-c3ccccc3)c(C#N)c(=O)[nH]2)cc1,"inconclusive: 50.1 µM [inhibitor, partial curve, poor fit]",
CCOc1cccc2cc(-c3csc(Nc4cc(OC)ccc4OC)n3)c(=O)oc12,"inconclusive: 112 µM [inhibitor, partial curve, poor fit]",
O=C(NC(C(=O)O)c1ccccc1)c1ccco1 (centres undefined),"inconclusive: 70.8 µM [inhibitor, partial curve, poor fit]",
Cc1cccc(C)c1-c1ccc(CN2C(CC(C)C)C(=O)N(Cc3cn(CCO)nn3)CCS2(=O)=O)cc1 (centres undefined),"inconclusive: 126 µM [inhibitor, single point]",
CN1CCN(C(=O)c2cc3c(c(-c4cccc(Br)c4)n2)[C@H](CCO)N(S(=O)C(C)(C)C)C3)CC1 (some centres undefined),,inactive: 1.75%
COC(=O)c1ccccc1NC(=O)NC(=O)C(F)(F)F,"inconclusive: 31.6 µM [inhibitor, partial curve, poor fit]",
O=C(CCN1CCN(c2ccccc2)CC1)N/N=C/c1ccccc1O,,inactive: 0.324%
CC(Cc1nnc(N)s1)c1ccccc1 (centres undefined),,inactive: 0%
CC(C)(C)c1nnc2sc(SCC(=O)c3cccs3)nn2c1=O,"inconclusive: 14.1 µM [inhibitor, partial curve, poor fit]",
CCOc1ccc(CNC(=O)C2CCCN(S(=O)(=O)c3ccc4c(c3)CCCC(=O)N4)C2)cc1 (centres undefined),,inactive: -16.9%
CC1CCN(C(=O)C(=O)N2CCN(c3nc(-c4ccco4)c4c(c3C#N)CC(C)(C)OC4)CC2)CC1,active: 14.1 µM,
O=C(/C=C\c1ccco1)Nc1nc(-c2ccc3ccccc3c2)cs1,"inconclusive: 63.1 µM [inhibitor, partial curve, poor fit]",
CC(C)CCNC(=O)CSc1c2c(nc3ccc(Cl)cc13)CCCC2,,inactive: -10.4%
Cc1ccc(Cn2c(SCC(=O)O)nc3c2c(=O)[nH]c(=O)n3C)cc1,"inconclusive: 35.5 µM [inhibitor, partial curve, poor fit]",
Cc1ccc(CNC2(Cc3cc(-c4ccccn4)on3)COC2)o1,,inactive: -10.1% [at 176 µM]
CC(C)(C)OC(=O)N1CCc2nc3ccccc3c(N)c2C1=O,"inconclusive: 141 µM [inhibitor, single point]",
Cc1nn(Cc2ccc(Cl)cc2)c(C)c1NC(=O)c1noc2c1CCc1ccccc1-2,,inconclusive: -30.3% [inhibitor]
CC1(C(=O)NS(=O)(=O)c2ccc(Cl)s2)CCN1C(=O)Cc1ccc(-c2ccccc2)cc1 (centres undefined),"inconclusive: 79.4 µM [inhibitor, single point]",
C=CC[N+](C)(C)CC(=O)c1ccccc1,,inactive: -9.88%
CCOC(=O)C1=C(CN2CCN(CC)CC2)NC(=O)NC1c1ccc(Cl)cc1 (centres undefined),,inactive: -29.2%

# Retrieved by compound from the list above:
SMILES,Potency,"activity change, negative = inhibition"
CCc1ccc(NC(=O)CSc2nc(-c3ccccc3)c(C#N)c(=O)[nH]2)cc1,"inconclusive: 50.1 µM [inhibitor, partial curve, poor fit]",
CCOc1ccc(CNC(=O)C2CCCN(S(=O)(=O)c3ccc4c(c3)CCCC(=O)N4)C2)cc1 (centres undefined),,inactive: -16.9%
